Literature values, collected in US6664290B1, “Oral or vaginal administration of mesoprostol in third stage labor” (University College London, priority 1994, dated 2003).
At least one compound was matched to its structure with a doubt left.

Legend:
uterus = conditions: preclinical animal studies; cited from earlier work
[1] = tablets for oral use, no special storage conditions; cited from earlier work

CCCCC(C)(O)C/C=C/[C@H]1[C@H](O)CC(=O)[C@@H]1CCCCCCC(=O)OC (mixture of isomers) [Misoprostol]
Effect on the uterus (uterus): no effect
Shelf-life [1]: several years
